Measurements reported in paper PMC4823924.
Results are given in words; binding and its absence hold for the method and conditions named. Binding seen in cells or lysates may run through a third protein. Some entries that bind do so weakly or less than the wild type.

By UniProt entry, the sequences of proteins in these tests, tags left out.
UniProt P60953: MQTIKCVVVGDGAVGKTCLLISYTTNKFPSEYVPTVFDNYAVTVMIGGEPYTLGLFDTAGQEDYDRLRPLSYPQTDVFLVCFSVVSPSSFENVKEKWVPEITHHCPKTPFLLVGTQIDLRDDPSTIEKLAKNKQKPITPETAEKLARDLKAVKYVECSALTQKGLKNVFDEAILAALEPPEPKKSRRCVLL

Target: T1, ARHGAP10 (human (in A2780 cells)) (UniProt A1A4S6)
T1 sequence: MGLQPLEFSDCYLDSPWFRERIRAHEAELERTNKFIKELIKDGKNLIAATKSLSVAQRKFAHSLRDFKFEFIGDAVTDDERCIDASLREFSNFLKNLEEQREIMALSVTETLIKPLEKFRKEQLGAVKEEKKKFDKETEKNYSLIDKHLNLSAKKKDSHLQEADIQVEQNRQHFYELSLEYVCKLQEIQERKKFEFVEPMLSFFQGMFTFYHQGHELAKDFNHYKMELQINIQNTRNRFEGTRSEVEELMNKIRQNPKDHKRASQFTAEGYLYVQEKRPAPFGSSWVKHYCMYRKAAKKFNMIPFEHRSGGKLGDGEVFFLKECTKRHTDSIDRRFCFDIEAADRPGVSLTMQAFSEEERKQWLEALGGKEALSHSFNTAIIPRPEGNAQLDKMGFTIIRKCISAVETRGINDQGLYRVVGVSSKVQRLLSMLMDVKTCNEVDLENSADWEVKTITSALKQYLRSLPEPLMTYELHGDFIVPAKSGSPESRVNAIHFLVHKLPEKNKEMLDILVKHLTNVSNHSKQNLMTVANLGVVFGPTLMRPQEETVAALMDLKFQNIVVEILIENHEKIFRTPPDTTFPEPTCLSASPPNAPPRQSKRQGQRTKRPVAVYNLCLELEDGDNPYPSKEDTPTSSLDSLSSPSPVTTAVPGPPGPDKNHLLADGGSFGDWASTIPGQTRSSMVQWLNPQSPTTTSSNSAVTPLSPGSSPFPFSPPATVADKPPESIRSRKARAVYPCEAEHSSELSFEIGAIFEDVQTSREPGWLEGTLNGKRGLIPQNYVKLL
Experiment: co-IP; anti-ARHGAP10 coupled to protein A-Sepharose beads in RIPA buffer, incubated with A2780 cell lysate at 4 °C for 2 h, washed three times with TBS (50 mmol/l Tris-HCl pH 7.4, 150 mmol/l NaCl); blot for Cdc42; control IgG

With Cdc42 (from UniProt P60953 1-191) the binding was “binds”.
